Reference: patent US20060026719A1
No constants are given. Whether binding was seen depends on the method and setting. Some binding calls cover weakened binding; strength is not graded here.

By UniProt entry, the sequences of proteins in these tests, tags left out. Where a name states a change or a piece, a line headed by the entry shows the natural chain unless it says otherwise.
UniProt P01241: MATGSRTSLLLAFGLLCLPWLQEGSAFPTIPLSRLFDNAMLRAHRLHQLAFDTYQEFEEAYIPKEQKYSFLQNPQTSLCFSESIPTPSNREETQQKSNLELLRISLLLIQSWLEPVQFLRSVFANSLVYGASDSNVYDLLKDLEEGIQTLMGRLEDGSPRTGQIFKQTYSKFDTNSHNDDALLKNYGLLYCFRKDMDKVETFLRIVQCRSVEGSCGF

Molecular target: T1, growth hormone receptor (GHR) on GHR-expressing NIH 3T3-L1 cells (UniProt P16882)
T1 sequence (looked up): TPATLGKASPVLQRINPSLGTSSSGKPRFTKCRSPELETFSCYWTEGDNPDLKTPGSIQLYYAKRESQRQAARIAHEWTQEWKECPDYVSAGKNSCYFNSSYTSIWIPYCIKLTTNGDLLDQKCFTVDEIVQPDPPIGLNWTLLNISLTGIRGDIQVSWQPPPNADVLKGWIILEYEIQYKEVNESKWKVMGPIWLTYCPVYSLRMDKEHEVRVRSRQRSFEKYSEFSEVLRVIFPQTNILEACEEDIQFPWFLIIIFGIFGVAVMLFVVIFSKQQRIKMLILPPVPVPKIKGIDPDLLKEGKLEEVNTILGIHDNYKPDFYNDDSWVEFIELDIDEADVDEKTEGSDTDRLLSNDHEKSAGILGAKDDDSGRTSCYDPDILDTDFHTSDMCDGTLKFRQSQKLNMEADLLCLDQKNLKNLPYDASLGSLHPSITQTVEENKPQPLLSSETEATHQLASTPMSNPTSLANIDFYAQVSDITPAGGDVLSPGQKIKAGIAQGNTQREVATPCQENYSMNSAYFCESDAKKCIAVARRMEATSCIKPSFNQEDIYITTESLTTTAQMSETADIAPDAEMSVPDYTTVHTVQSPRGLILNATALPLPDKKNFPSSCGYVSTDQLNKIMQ
Experiment: radioreceptor competition assay, displacement of [125I]-hGH from GHR-expressing NIH 3T3-L1 cells

“commercially available human growth hormone (hGH) (from UniProt P01241 27-217) (ligand)” was tested, and the binding was “binds”.
